The campaign covered roughly 580,000 compounds. About 6,100 (1.1%) were called active. Inconclusive means that the source gave no clear call. Such entries were picked first, then a sample of the others. Calls follow the shape of the dose curve; as a rule, active = well fitted inhibition curve with a large enough effect; inconclusive = small, poorly fitted or top-dose-only effect, or another doubt; inactive = no such curve, though single readings can be large or run the other way. Where the call is inconclusive, the potency comes from a doubtful curve fit.
target: Polyunsaturated fatty acid lipoxygenase ALOX12 (Homo sapiens) (UniProt P18054); test: Primary qHTS assay for inhibitors of human arachidonate 12S-lipoxygenase (ALOX12): Round 2; conditions: purified 12hLO, xylenol orange hydroperoxide absorbance; activity change, negative = inhibition: at 108 µM (top of the series) unless noted
Method in brief: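 Purified human 12hLO (150 nM final) in 25 mM Hepes, 0.01% Triton X-100, pH 7.0 was preincubated 15 min at room temperature with compound. Then 40 uM arachidonic acid was added, 30 min. Hydroperoxide was read by Fe-XO absorbance ratio 573/405 nm.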
% is scaled to controls: 0 for no effect and ±100 for the full control effect; potency is read from the fitted curve at half-maximal effect.

By UniProt entry, the sequences of proteins in these tests, tags left out. Where a name states a change or a piece, a line headed by the entry shows the natural chain unless it says otherwise.
UniProt P18054: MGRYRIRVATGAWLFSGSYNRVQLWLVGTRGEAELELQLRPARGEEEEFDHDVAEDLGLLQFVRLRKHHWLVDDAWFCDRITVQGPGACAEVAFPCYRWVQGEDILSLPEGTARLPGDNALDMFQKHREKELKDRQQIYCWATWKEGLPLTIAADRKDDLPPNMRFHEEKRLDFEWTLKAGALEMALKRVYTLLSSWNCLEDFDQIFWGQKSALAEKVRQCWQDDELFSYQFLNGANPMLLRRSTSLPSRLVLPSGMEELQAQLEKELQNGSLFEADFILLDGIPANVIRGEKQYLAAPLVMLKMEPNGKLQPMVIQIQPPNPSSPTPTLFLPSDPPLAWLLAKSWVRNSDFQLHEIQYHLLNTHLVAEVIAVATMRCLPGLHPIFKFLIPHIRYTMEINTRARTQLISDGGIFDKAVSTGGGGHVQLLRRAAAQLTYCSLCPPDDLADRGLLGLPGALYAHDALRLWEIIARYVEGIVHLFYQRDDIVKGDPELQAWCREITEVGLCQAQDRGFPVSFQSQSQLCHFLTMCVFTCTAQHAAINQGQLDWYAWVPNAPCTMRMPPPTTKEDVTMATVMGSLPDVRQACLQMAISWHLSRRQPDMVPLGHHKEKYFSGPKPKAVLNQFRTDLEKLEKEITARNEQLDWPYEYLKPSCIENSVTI

| SMILES | Potency | activity change, negative = inhibition |
| --- | --- | --- |
| COc1cc(OC)cc(C(=O)N2CCN(c3cc(C(F)(F)F)nc(C)n3)CC2)c1 | inconclusive: 70.8 µM [inhibitor, partial curve, poor fit] |  |
| N#Cc1ccc(CN2CCN(C(=O)Cn3nc(C(N)=O)c4ccccc4c3=O)CC2)cc1 | inconclusive: 79.4 µM [inhibitor, partial curve, poor fit] |  |
| COc1ccc(C(=O)N2CCC(c3nc4ccccc4s3)CC2)cc1Cl |  | inactive: -18% |
| O=S(=O)(c1ccccc1)N1CCCC(c2nc(CCOc3ccc(F)cc3)no2)C1 (stereo not drawn) |  | inactive: 47.2% |
| CC(C)NC(=O)C1(C)CN(S(C)(=O)=O)CC(=O)N1CCOc1ccccc1 (stereo not drawn) | inconclusive: 35.5 µM [inhibitor, single point] |  |
| Cc1ccc([C@H]2C[C@@H](n3cc(-c4ccc(F)cc4)nn3)[C@H](O)CN2C(=O)c2cccs2)cc1 | inconclusive: 79.4 µM [inhibitor, partial curve, poor fit] |  |
| COc1cccc(CN2c3ccccc3C3=C(C(c4ccccc4)C(C#N)=C(N)O3)S2(=O)=O)c1 (stereo not drawn) | inconclusive: 79.4 µM [inhibitor, partial curve, poor fit] |  |
| CC1=C(C(=O)N(C)C)CC(CC(=O)NCc2cccs2)C(=O)N1CCC1=CCCCC1 (stereo not drawn) | inconclusive: 70.8 µM [inhibitor, single point] |  |
| Cc1c(F)cccc1NC(=O)N1CCCC(Cn2c(C)nc3cccnc32)C1 (stereo not drawn) | inconclusive: 10 µM [inhibitor, full curve] |  |
| CC(C)(C)OC(=O)N1CCC(NC(=O)c2nc(-c3ccccc3)c3ccccn23)CC1 | inconclusive: 79.4 µM [inhibitor, single point] |  |
| NC(=O)c1ccc(NC(=O)/C=C/c2ccc(Cl)c(C(F)(F)F)c2)cc1 | inconclusive: 141 µM [inhibitor, single point] |  |
| COCC1CN(C(=O)NCc2ccc(F)cc2)CC12CCNCC2 (stereo not drawn) | inconclusive: 25.1 µM [inhibitor, full curve] |  |
| Cn1cnc2c1c(=O)n(Cc1ccccc1)c(=O)n2C |  | inactive: -1.45% |
| CN(C)[C@@H]1C(=O)C(C(N)=O)=C(O)[C@@]2(O)C(=O)C3=C(O)c4c(O)cccc4C[C@H]3C[C@@H]12 | inconclusive: 2.56 µM [inhibitor, full curve] |  |
| COc1cc(OC)c2c3c(c(C4CCCCC4)nc2c1)CCCC3 | inconclusive: 1.12 µM [inhibitor, full curve, poor fit] |  |
| CCOC(=O)C1(CCCc2ccccc2)CCN(C(=O)c2ocnc2C)CC1 |  | inactive: 4.84% |
| Cc1ccc(C)c(C(=O)NCc2nnc3cc(-c4nc(C5CC5)no4)ccn23)c1 |  | inactive: 0.449% |
| CCN1C(=O)[C@H]2[C@@H](c3ccc(C(F)(F)F)cc3)N[C@]3(CCCN(Cc4cccn4C)C3=O)[C@H]2C1=O | inconclusive: 7.94 µM [inhibitor, full curve] |  |
| FC(F)(F)Oc1ccc(-c2cnc([C@@H]3COCCN3C3CCOCC3)[nH]2)cc1 |  | inactive: 27.2% [at 176 µM] |
| COc1ccccc1C(=O)NC(CCSC)C(=O)NCCCn1nc(C)cc1C (stereo not drawn) | inconclusive: 56.2 µM [inhibitor, partial curve, poor fit] |  |
| COc1cc(Cl)c(C)cc1NC(=O)CSc1nc2c(c(=O)[nH]1)CCC2 | inconclusive: 56.2 µM [inhibitor, partial curve, poor fit] |  |

Record cards, from the list above:
CC(C)NC(=O)C1(C)CN(S(C)(=O)=O)CC(=O)N1CCOc1ccccc1 (stereo not drawn) in the list: Potency: inconclusive: 35.5 µM [inhibitor, single point]
COc1cccc(CN2c3ccccc3C3=C(C(c4ccccc4)C(C#N)=C(N)O3)S2(=O)=O)c1 (stereo not drawn) in the list: Potency: inconclusive: 79.4 µM [inhibitor, partial curve, poor fit]

Next part.

| SMILES | Potency | activity change, negative = inhibition |
| --- | --- | --- |
| COc1ccccc1C1(O)CCN(CC(=O)Nc2nc(-c3ccccc3)cs2)CC1 |  | inactive: 0.971% |
| Cc1ccc(C(=O)NC(=S)NNC(=O)c2ccc(NC(=O)c3ccccc3)cc2)cc1 | inconclusive: 14.1 µM [inhibitor, full curve, poor fit] |  |
| CCOC(=O)c1cccc(NC(=O)C(NS(=O)(=O)c2ccc3c(c2)CCN3C(C)=O)C(C)C)c1 (stereo not drawn) | inconclusive: 31.6 µM [inhibitor, partial curve, poor fit] |  |
| CN1C[C@H](NCc2cccc3c2OCO3)CCC[C@@H](C(=O)NCc2cc(F)cc(F)c2)CC1=O |  | inactive: 0.647% |
| Cc1ccc(CN2CC3(C2)NC(=O)c2ccccc2O3)cc1 |  | inactive: 49.2% [at 176 µM] |
| COc1cccc(CNC(=O)c2ccc(CNS(=O)(=O)c3ccc(C)cc3)cc2)c1 | inconclusive: 44.7 µM [inhibitor, partial curve, poor fit] |  |
| COc1cc(C(=O)NNC(=O)CNC(=O)c2ccc(Br)o2)cc(OC)c1OC | inconclusive: 22.4 µM [inhibitor, full curve, poor fit] |  |
| CCOC(=O)c1sc(NC(=O)CSc2nccn2C)nc1C | inconclusive: 100 µM [inhibitor, single point] |  |
| CC(c1ccco1)N(C(=O)c1ccc(Cl)c([N+](=O)[O-])c1)c1ccccn1 (stereo not drawn) |  | inactive: -17.7% |
| COC(=O)CC1C(=O)NCCN1S(=O)(=O)c1ccc(F)cc1 (stereo not drawn) |  | inactive: -7.31% |
| CC(=O)N1CCCC1c1nnc2n1CCNC2 (stereo not drawn) | inconclusive: 8.91 µM [inhibitor, partial curve, poor fit] |  |
| CCCN(CC(=O)Nc1ccccc1OC)Cc1c(O)ccc2ccccc12 | inconclusive: 35.5 µM [inhibitor, partial curve, poor fit] |  |
| Cc1cccc(OCc2nc(CC(=O)Nc3ccc(C)cc3C)cs2)c1 |  | inactive: -28.8% |
| CCN(CC)S(=O)(=O)c1cc(NC(=O)CN2C(=O)NC(C)(c3ccccc3)C2=O)ccc1C (stereo not drawn) |  | inactive: -13.8% |
| CN1CCN(CC#Cc2ccccc2)CC1CCO (stereo not drawn) | inconclusive: 70.8 µM [inhibitor, partial curve, poor fit] |  |
| Cc1noc([C@@H]2CC(F)(F)CN2C(=O)c2ccc(C#N)cc2)n1 | inconclusive: 8.91 µM [inhibitor, full curve, poor fit] |  |
| COCCn1c(SC(C)C(=O)c2ccc(Br)cc2)nnc1-c1cccc(C)c1 (stereo not drawn) | inconclusive: 1.78 µM [inhibitor, full curve, poor fit] |  |
| Cc1ccc(-n2nc3ccc(N)cc3n2)cc1 |  | inactive: 13.4% |
| CC1CCN(S(=O)(=O)c2cc(C(=O)NC3(C)CCS(=O)(=O)C3)ccc2Br)CC1 (stereo not drawn) | inconclusive: 141 µM [inhibitor, single point] |  |
| COCCN1C(=O)C(=O)/C(=C(/O)c2ccccc2)C1c1ccccc1 (stereo not drawn) | inconclusive: 3.98 µM [inhibitor, full curve, poor fit] |  |
| O=C(C1CCCN(Cc2ccc3c(c2)OCO3)C1)N1CCCC1 (stereo not drawn) | inconclusive: 4.47 µM [inhibitor, full curve, poor fit] |  |

| SMILES | Potency | activity change, negative = inhibition |
| --- | --- | --- |
| O=C(/C=C/c1ccco1)c1cccnc1 | inconclusive: 14.1 µM [inhibitor, full curve, poor fit] |  |
| CCn1cc(C(=O)N2CCCCC2)c(=O)c2cc(S(=O)(=O)N3CCC(C)CC3)ccc21 | inconclusive: 35.5 µM [inhibitor, partial curve, poor fit] |  |
| COCCn1nnnc1C(c1ccccc1OC)N1CCN(c2ccccc2F)CC1 (stereo not drawn) | inconclusive: 39.8 µM [inhibitor, partial curve, poor fit] |  |
| COc1ccccc1CNc1nc(Nc2ccccc2Cl)c2sccc2n1 | inconclusive: 89.1 µM [inhibitor, partial curve, poor fit] |  |
| COc1ccc(CNC(=O)C[C@@H]2CCNC[C@@H]2Cc2cc(-c3ccc(C(C)(C)C)cc3)on2)cc1 | active: 17.8 µM |  |
| COc1ccc(-c2noc(-c3nnn4c3COC(c3ccc(C)cc3C)C4)n2)cc1F (stereo not drawn) |  | inactive: 55.1% |
| Cc1ccc(NC(=O)Cn2c(=S)[nH]c3ccccc32)cc1 | inconclusive: 44.7 µM [inhibitor, partial curve, poor fit] |  |
| CC1CCc2c(sc3nnn(CCCCOc4ccc(Cl)cc4)c(=O)c23)C1 (stereo not drawn) | inconclusive: 39.8 µM [inhibitor, partial curve] |  |
| CCOC(=O)c1c(NC(=O)c2cc(OCC)c(OCC)c(OCC)c2)sc2c1CCCCC2 |  | inactive: 0% |
| CN1C(CC(=O)Nc2ccc(Br)cc2)c2ccccc2CC1(C)C (stereo not drawn) | inconclusive: 79.4 µM [inhibitor, partial curve, poor fit] |  |
| Cc1onc(-c2ccccc2)c1C(=O)Nc1nc(-c2cc(F)ccc2F)cs1 | inconclusive: 0.224 µM [inhibitor, full curve, poor fit] |  |
| CCC(CO)Oc1cc(NC(=O)c2ccccc2)c2ncn(C(C)C)c2c1 (stereo not drawn) | inconclusive: 7.08 µM [inhibitor, full curve, poor fit] |  |
| O=C(c1ccc2ccccc2n1)N1CCC(n2c(=O)[nH]c3ccccc32)CC1 | inconclusive: 39.8 µM [inhibitor, full curve] |  |
| COc1ccc(S(=O)(=O)Nc2cccc(-c3ccc4nncn4n3)c2)c(OC)c1 | inconclusive: 79.4 µM [inhibitor, single point] |  |
| CC1=C(C(=O)Nc2ccccc2)C(c2ccc(C)cc2)N=C(Nc2nc3ccccc3o2)N1 (stereo not drawn) | inconclusive: 56.2 µM [inhibitor, partial curve, poor fit] |  |
| CNC(=S)N1N=C(c2ccc(Br)cc2)CC1c1ccc(Br)cc1 (stereo not drawn) | inconclusive: 10 µM [inhibitor, full curve, poor fit] |  |
| NCc1cccc(-c2cccnc2)c1 | inconclusive: 10 µM [inhibitor, partial curve] |  |
| Nc1cccc2c1C(=O)N(C(=O)c1cccc(S(=O)(=O)N3CCCC3)c1)C2=O | inconclusive: 56.2 µM [inhibitor, partial curve, poor fit] |  |
| N#CCc1ccc(NC(=O)CNc2ccc(F)cc2Cl)cc1 |  | inactive: -19.1% |
| Cc1cccc(NC(=O)CN2C(=O)N/C(=C/c3ccc(C)o3)C2=O)c1 | inconclusive: 44.7 µM [inhibitor, partial curve, poor fit] |  |
| CCOC(=O)C1CCN(CCCSc2ccc(Cl)cc2)CC1 | inconclusive: 35.5 µM [inhibitor, partial curve] |  |

Reference: PubChem BioAssay AID1671190 (National Center for Advancing Translational Sciences (NCATS), 2021)
